Experimental data as given in PMC11811133.
No constants are given. Whether binding was seen depends on the method and setting. In cells and extracts the contact can be indirect. Some entries that bind do so weakly or less than the wild type. For part of these data: Tags and fused reporters may be left off the sequences shown.

Sequences of proteins named here, by UniProt entry; tags and fusion partners are left off.
UniProt Q8C6L5: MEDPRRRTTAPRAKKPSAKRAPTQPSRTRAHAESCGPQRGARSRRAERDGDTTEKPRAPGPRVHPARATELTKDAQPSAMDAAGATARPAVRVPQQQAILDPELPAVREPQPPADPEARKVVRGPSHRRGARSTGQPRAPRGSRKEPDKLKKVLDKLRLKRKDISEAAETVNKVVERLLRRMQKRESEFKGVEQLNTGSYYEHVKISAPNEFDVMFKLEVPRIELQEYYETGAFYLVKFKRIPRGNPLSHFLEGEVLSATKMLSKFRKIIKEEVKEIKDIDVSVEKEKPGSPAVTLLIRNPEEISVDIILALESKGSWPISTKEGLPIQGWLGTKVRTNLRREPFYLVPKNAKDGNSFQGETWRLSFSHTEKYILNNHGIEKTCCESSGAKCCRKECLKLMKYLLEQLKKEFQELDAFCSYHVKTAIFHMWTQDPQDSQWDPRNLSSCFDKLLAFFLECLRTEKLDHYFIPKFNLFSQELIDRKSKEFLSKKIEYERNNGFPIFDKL

How the values were obtained:
[1] = target: cGAS (cyclic GMP-AMP synthase), endogenous (UniProt Q8C6L5); assay: co-IP; cells transfected with TRIM56 WT, K110Q or K110R, then infected with HSV-1 (MOI = 3) for 12 h; endogenous cGAS
[2] = target: T1, HA-HDAC6 (full-length wild-type mouse histone deacetylase 6), expressed in 293T cells (mouse) (UniProt Q9Z2V5); assay: co-IP; 293T cells co-transfected with HA-HDAC6 and Flag-TRIM56
T1 sequence: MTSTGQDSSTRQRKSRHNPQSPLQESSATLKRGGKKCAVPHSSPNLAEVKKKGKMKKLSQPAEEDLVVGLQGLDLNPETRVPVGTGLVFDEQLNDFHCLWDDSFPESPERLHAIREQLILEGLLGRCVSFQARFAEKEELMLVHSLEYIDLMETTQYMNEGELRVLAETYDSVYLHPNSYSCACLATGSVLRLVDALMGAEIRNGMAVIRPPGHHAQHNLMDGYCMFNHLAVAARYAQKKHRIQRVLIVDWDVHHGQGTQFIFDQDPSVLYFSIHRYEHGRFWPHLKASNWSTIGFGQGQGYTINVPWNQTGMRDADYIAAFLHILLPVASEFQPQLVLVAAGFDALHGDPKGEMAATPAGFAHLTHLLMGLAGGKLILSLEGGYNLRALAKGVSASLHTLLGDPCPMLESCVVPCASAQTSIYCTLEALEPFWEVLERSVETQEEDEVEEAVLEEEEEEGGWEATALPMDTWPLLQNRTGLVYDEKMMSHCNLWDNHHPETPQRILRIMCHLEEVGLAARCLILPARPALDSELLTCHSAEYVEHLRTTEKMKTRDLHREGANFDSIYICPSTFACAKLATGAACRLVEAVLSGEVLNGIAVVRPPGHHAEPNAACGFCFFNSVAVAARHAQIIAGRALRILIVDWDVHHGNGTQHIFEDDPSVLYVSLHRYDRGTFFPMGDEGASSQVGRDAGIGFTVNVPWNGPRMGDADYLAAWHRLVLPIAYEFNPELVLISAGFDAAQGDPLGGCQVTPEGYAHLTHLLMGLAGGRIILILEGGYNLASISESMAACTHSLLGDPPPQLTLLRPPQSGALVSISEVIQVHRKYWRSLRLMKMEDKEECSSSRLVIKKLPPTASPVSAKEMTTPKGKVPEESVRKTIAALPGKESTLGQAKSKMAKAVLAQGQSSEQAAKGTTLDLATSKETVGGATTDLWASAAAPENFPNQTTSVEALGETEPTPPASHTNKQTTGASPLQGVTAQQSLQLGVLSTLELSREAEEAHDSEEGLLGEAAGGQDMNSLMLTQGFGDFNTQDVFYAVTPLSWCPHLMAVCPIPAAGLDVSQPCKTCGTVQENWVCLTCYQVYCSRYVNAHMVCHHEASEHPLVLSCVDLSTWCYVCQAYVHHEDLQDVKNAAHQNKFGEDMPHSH

[3] = target: T2, HDAC6 (histone deacetylase 6), endogenous in N2a cells (mouse (endogenous in N2a)) (UniProt Q9Z2V5); assay: co-IP; endogenous HDAC6 and TRIM56 in N2a cells, antibody with protein A/G magnetic beads overnight; cells without or with HSV-1 (MOI = 3, 12 h; MOI = 5, indicated times)
T2 sequence: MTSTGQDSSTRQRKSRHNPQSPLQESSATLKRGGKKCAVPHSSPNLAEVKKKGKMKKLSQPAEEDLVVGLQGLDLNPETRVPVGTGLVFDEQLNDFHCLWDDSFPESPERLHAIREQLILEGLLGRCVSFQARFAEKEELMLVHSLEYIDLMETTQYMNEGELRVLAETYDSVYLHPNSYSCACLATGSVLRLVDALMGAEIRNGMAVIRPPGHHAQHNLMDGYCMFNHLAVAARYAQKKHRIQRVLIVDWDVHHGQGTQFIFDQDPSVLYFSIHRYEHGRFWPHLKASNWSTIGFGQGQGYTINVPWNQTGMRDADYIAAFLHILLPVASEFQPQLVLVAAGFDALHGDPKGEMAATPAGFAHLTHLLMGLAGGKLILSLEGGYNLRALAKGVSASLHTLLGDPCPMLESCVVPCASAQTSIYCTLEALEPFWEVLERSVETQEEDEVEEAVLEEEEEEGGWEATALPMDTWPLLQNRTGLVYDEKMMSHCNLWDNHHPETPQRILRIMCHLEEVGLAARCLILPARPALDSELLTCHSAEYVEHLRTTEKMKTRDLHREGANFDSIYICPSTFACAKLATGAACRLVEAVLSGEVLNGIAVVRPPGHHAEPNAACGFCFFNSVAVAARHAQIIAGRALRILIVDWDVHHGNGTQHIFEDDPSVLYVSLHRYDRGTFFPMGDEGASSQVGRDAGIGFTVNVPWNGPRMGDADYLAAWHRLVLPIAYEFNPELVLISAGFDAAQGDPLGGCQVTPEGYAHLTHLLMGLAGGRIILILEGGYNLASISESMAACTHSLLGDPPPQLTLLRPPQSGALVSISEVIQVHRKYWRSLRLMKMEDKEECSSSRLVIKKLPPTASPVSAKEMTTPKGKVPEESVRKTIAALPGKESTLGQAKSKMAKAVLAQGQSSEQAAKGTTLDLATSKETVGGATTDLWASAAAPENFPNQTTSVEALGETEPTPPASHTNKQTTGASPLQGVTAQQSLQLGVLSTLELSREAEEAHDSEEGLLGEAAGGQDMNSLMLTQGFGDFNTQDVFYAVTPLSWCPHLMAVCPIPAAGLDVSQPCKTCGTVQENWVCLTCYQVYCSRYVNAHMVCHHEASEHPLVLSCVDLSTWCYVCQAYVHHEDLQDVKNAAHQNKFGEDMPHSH

[4] = target: cGAS (cyclic GMP-AMP synthase), endogenous (UniProt Q8C6L5); assay: co-IP; endogenous TRIM56 and cGAS in cells transfected with HDAC6-WT or HDAC6-HD1/2 m (HDAC6 WT suppressed the binding)

Molecule | binding [1] | further results
TRIM56 K110R (non-acetylated mutant of mouse TRIM56) (from UniProt Q80VI1 1-734) | binds | –
TRIM56 K110Q (acetyl-mimetic mutant of mouse TRIM56) (from UniProt Q80VI1 1-734) | binds | –
Flag-TRIM56 (full-length wild-type mouse TRIM56), expressed in 293T cells (protein, UniProt Q80VI1 1-734) MNSKVSSPTLLEALSSDFLACKICLEQLHTPKTLPCLHTYCQDCLAQLDIGGQVRCPECREIVPVPAEGVAAFKTNFFVNGLLDLVKARAPGDVHSGKPTCALCPLVGGKSSGGPATARCLDCADDLCQACADGHRCSRQTHKHRVVDLVGYRAGWYDEEARERQASQCPQHPGEALCFLCQPCSQLLCKDCRLGPHIDHPCLPLAEAVRSRKPGLEELLAGVDSNLVELEATRVAEKEALALLREQAASVGTQVEEAAERILKSLLAQKQEVLGQLRALVEAAEEATRERLTKIERQEQVAKAAAAFARRVLSLGLEAEILSLEGAITQRLRQLQDAPWTSGPTRCVLPQLELHPGLEDKNCHLLRLIFEEPKQSPKDSGKGGAGTQGGDEAQGQGDDRTKIGKQGGAQPLTPKEGKDQNPQEDDGVFIERGNRPNKKKKCKGRGKSVSREPSPILRPNLEGSGLLPRPVFSWSFPTRMPGDKRSPRITGLCPYGPQEILVADEQNRVLKRFSLNGDYKGTVQVPEGCSPCSVAALQNAVAFSANAKLYLVSPDGEIQWRRSLSLTQSSHAVAAMPCGDRVAVSVAGHVEVYKKDGSLATRFIPGGKASRGQRALVFLTTSPQGNFVGSDWQQNSVVFCDGLGQVIWEYKGPGLHGCQPGSVSVDKKGYIFLTLREVNKVVILDPKGSLLGDFLTAYHGLEKPRVTTMVDGKYLVVSLSNGTIHVFRVRFPDS | – | binding [2]: binds
TRIM56 (tripartite motif protein 56), endogenous in N2a cells (protein, UniProt Q80VI1 1-734) MNSKVSSPTLLEALSSDFLACKICLEQLHTPKTLPCLHTYCQDCLAQLDIGGQVRCPECREIVPVPAEGVAAFKTNFFVNGLLDLVKARAPGDVHSGKPTCALCPLVGGKSSGGPATARCLDCADDLCQACADGHRCSRQTHKHRVVDLVGYRAGWYDEEARERQASQCPQHPGEALCFLCQPCSQLLCKDCRLGPHIDHPCLPLAEAVRSRKPGLEELLAGVDSNLVELEATRVAEKEALALLREQAASVGTQVEEAAERILKSLLAQKQEVLGQLRALVEAAEEATRERLTKIERQEQVAKAAAAFARRVLSLGLEAEILSLEGAITQRLRQLQDAPWTSGPTRCVLPQLELHPGLEDKNCHLLRLIFEEPKQSPKDSGKGGAGTQGGDEAQGQGDDRTKIGKQGGAQPLTPKEGKDQNPQEDDGVFIERGNRPNKKKKCKGRGKSVSREPSPILRPNLEGSGLLPRPVFSWSFPTRMPGDKRSPRITGLCPYGPQEILVADEQNRVLKRFSLNGDYKGTVQVPEGCSPCSVAALQNAVAFSANAKLYLVSPDGEIQWRRSLSLTQSSHAVAAMPCGDRVAVSVAGHVEVYKKDGSLATRFIPGGKASRGQRALVFLTTSPQGNFVGSDWQQNSVVFCDGLGQVIWEYKGPGLHGCQPGSVSVDKKGYIFLTLREVNKVVILDPKGSLLGDFLTAYHGLEKPRVTTMVDGKYLVVSLSNGTIHVFRVRFPDS | – | binding [3]: binds; binding [4]: binds
TRIM56 WT (Flag-TRIM56, full-length mouse), transfected for the co-IP with cGAS (protein, UniProt Q80VI1 1-734) MNSKVSSPTLLEALSSDFLACKICLEQLHTPKTLPCLHTYCQDCLAQLDIGGQVRCPECREIVPVPAEGVAAFKTNFFVNGLLDLVKARAPGDVHSGKPTCALCPLVGGKSSGGPATARCLDCADDLCQACADGHRCSRQTHKHRVVDLVGYRAGWYDEEARERQASQCPQHPGEALCFLCQPCSQLLCKDCRLGPHIDHPCLPLAEAVRSRKPGLEELLAGVDSNLVELEATRVAEKEALALLREQAASVGTQVEEAAERILKSLLAQKQEVLGQLRALVEAAEEATRERLTKIERQEQVAKAAAAFARRVLSLGLEAEILSLEGAITQRLRQLQDAPWTSGPTRCVLPQLELHPGLEDKNCHLLRLIFEEPKQSPKDSGKGGAGTQGGDEAQGQGDDRTKIGKQGGAQPLTPKEGKDQNPQEDDGVFIERGNRPNKKKKCKGRGKSVSREPSPILRPNLEGSGLLPRPVFSWSFPTRMPGDKRSPRITGLCPYGPQEILVADEQNRVLKRFSLNGDYKGTVQVPEGCSPCSVAALQNAVAFSANAKLYLVSPDGEIQWRRSLSLTQSSHAVAAMPCGDRVAVSVAGHVEVYKKDGSLATRFIPGGKASRGQRALVFLTTSPQGNFVGSDWQQNSVVFCDGLGQVIWEYKGPGLHGCQPGSVSVDKKGYIFLTLREVNKVVILDPKGSLLGDFLTAYHGLEKPRVTTMVDGKYLVVSLSNGTIHVFRVRFPDS | binds | –
